Measured data: PubChem BioAssay AID1224828 (NIAID, 2016)

- Test: 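Find genes required for NF-kappaB p65 moving into the nucleus after LPS in mouse macrophages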 (primary screen)
- System: mouse RAW264.7 G9 macrophage reporter cells (GFP-p65, Tnf promoter-mCherry)
- Reagent: siRNA pool against mouse genes, 100 nM
- Timing: 2 days siRNA transfection, then 40 min LPS before fixation
- Challenge: LPS (Salmonella minnesota R595) at 10 ng/ml
- Measured: 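Microscopy ratio of nuclear to perinuclear-ring GFP-p65 signal, scaled to the plate median; gene score is the average of two replicate robust z-scores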
- Reading the numbers: p65 translocation robust z-score: higher = more nuclear NF-kappaB p65 after LPS than the plate median; nuclear/cytoplasmic p65 ratio: higher = more nuclear NF-kappaB p65
- Rule for the call: 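Called active when z exceeds 3.3 or falls under -1.56 (median of Tlr4 controls), giving activity score of at least 50; no calls for control wells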
- Calls: active = hit (p65 shift raised or lowered); inactive = no clear change
In all, the deposit lists about 17,000 reagents; shown is a random part of them. Over the whole deposit, 762 (4.5%) were called active. 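Active calls include both raised and lowered p65 entry, mostly lowered; wells with fewer than 50 cells lack a z-score.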 Raw values vary from plate to plate and are shown uncorrected. A number with no mark means an inactive call.

target gene | p65 translocation robust z-score | nuclear/cytoplasmic p65 ratio, rep 1 | nuclear/cytoplasmic p65 ratio, rep 2 | low cell count flag
Atp5f1e | – | 1.38 | 1.34 | fewer than 50 cells per well; well left out of scoring
Pyy | 0.28 | 1.45 | 1.22 | enough cells to score
Zfp959 | -0.26 | 1.6 | 1.73 | enough cells to score
Gpr162 | -1.27 | 1.33 | 1.4 | enough cells to score
Slc6a18 | 0.04 | 1.37 | 1.26 | enough cells to score
Or2ag2 | -0.99 | 0.986 | 1.15 | enough cells to score
Rsph1 | -0.15 | 1.41 | 1.21 | enough cells to score
Ces1c | 0.58 | 1.77 | 1.46 | enough cells to score
Tacr2 | -1.65 (active) | 1.28 | 1.1 | enough cells to score
Rpl3 | – | 1.15 | 1.13 | fewer than 50 cells per well; well left out of scoring
Atoh7 | 0.35 | 1.56 | 1.65 | enough cells to score
Usp27x | -0.85 | 1.24 | 1.16 | enough cells to score
Atic | 0.6 | 1.71 | 1.69 | enough cells to score
G6pc1 | 0.86 | 1.51 | 1.52 | enough cells to score
Pmvk | 0.84 | 1.65 | 1.48 | enough cells to score
Or4c11b | -0.65 | 1.62 | 1.58 | enough cells to score
Padi1 | – | 1.25 | 1.4 | fewer than 50 cells per well; well left out of scoring
Nmu | 0.36 | 1.48 | 1.48 | enough cells to score
Adipor1 | 2.83 | 1.74 | 1.88 | enough cells to score
Msrb2 | 0.07 | 1.49 | 1.31 | enough cells to score
Cd164 | 0.03 | 1.39 | 1.38 | enough cells to score
Borcs7 | -0.92 | 1.18 | 1.26 | enough cells to score
Hnrnpm | 1.83 | 1.94 | 1.79 | enough cells to score
Mief1 | 0.51 | 1.74 | 1.71 | enough cells to score
Nlgn1 | -0.39 | 1.63 | 1.5 | enough cells to score
Ccdc88c | -0.43 | 1.39 | 1.48 | enough cells to score
Xrn1 | -1.47 | 1.22 | 1.15 | enough cells to score
Cct8l1 | 1.49 | 1.87 | 1.76 | enough cells to score
Crabp2 | 1.34 | 1.76 | 2.02 | enough cells to score
Cpped1 | 0.64 | 1.59 | 1.54 | enough cells to score
Abhd18 | – | 1.24 | 1.32 | fewer than 50 cells per well; well left out of scoring
Catsperd | – | 1.24 | 1.21 | fewer than 50 cells per well; well left out of scoring
Btf3l4 | – | 1.67 | 1.61 | fewer than 50 cells per well; well left out of scoring
Or2y15 | -0.93 | 1.5 | 1.27 | enough cells to score
Or4f15 | 2.35 | 1.94 | 1.75 | enough cells to score
Epb41l5 | 1.43 | 1.82 | 1.64 | enough cells to score
Daam2 | 0.61 | 1.62 | 1.38 | enough cells to score
Krtap4-2 | -0.05 | 1.49 | 1.62 | enough cells to score
Rims1 | 1.29 | 1.57 | 1.74 | enough cells to score
Wdfy3 | 0.52 | 1.54 | 1.26 | enough cells to score

Entries listed above marked active (1):
target gene | p65 translocation robust z-score | nuclear/cytoplasmic p65 ratio, rep 1 | nuclear/cytoplasmic p65 ratio, rep 2 | low cell count flag
Tacr2 | -1.65 (active) | 1.28 | 1.1 | enough cells to score
